These are yes or no findings as the source states them, for the method shown. Some binding calls cover weakened binding; strength is not graded here.
Target: mCherry-Smn (transfected SH-SY5Y cells) (zebrafish) (UniProt Q9W6S8)
Assay: fluorescence correlation spectroscopy (brightness analysis); confocal FCS in the cytoplasm of transfected SH-SY5Y cells; average intensity plotted against number of particles; mCherry-Smn against mCherry, and mCherry-Smn with co-transfected untagged Smn (125 ng of each plasmid)

By UniProt entry, the sequences of proteins in these tests, tags left out.
UniProt Q9W6S8: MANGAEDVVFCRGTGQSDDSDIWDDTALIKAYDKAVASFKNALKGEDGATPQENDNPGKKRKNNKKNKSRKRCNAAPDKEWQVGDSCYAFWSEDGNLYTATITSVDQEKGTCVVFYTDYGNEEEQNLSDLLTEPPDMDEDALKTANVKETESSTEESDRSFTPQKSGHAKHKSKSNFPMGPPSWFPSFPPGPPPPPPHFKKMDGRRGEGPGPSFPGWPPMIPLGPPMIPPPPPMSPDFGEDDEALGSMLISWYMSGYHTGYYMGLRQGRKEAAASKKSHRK

| binding | Substance |
| --- | --- |
| binds | mCherry-Smn (transfected SH-SY5Y cells) (from UniProt Q9W6S8 1-281) |
| binds | untagged Smn (transfected SH-SY5Y cells) (from UniProt Q9W6S8 1-281) |
